From patent US20230357179A1, “RAF KINASE INHIBITORS AND METHODS OF USE THEREOF” (Deciphera Pharmaceuticals, LLC, priority 2021, published 2023)

Sequences of proteins named here, by UniProt entry; tags and fusion partners are left off. A change or cut given only in a name is not applied to a line headed by its entry. A line that says so, or that is headed by a name, gives the form on record, which may keep a tag or linker. Residues count along the entry.
UniProt P10398, 273-606 with tags or gaps Y301D/Y302D: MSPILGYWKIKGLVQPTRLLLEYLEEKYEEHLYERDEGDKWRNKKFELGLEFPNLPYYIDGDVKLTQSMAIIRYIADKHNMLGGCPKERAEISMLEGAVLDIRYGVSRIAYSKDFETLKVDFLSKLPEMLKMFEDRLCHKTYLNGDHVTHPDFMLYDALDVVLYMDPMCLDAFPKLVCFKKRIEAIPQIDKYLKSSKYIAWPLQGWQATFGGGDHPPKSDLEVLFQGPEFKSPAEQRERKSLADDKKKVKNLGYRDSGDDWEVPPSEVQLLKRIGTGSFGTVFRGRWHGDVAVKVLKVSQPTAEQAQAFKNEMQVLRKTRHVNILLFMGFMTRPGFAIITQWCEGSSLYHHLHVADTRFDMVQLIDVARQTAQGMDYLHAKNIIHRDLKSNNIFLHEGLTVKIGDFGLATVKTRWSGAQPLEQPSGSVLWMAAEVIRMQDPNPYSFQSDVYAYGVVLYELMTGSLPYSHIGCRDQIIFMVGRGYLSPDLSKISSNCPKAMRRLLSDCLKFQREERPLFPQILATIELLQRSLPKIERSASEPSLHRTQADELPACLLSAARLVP
UniProt P15056, 416-766: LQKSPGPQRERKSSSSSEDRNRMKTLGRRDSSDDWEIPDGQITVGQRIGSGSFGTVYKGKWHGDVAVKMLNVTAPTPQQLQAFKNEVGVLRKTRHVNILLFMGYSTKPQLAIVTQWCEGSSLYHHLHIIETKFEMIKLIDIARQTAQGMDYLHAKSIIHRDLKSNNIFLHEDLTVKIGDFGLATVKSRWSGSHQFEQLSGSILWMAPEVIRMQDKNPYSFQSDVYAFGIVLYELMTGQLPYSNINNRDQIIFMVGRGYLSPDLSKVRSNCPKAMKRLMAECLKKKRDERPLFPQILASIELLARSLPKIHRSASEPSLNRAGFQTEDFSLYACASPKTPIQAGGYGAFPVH
UniProt P15056, 416-766 V600E: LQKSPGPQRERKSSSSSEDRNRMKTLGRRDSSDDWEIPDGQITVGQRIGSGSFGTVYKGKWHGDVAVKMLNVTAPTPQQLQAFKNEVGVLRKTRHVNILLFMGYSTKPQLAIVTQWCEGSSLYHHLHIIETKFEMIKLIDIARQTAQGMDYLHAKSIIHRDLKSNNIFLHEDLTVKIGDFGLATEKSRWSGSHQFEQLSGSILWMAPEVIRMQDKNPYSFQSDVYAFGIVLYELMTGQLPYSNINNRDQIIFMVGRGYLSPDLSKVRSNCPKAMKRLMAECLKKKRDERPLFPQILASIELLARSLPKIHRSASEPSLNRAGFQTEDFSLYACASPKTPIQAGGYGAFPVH
UniProt P04049, 307-648 Y340D/Y341D: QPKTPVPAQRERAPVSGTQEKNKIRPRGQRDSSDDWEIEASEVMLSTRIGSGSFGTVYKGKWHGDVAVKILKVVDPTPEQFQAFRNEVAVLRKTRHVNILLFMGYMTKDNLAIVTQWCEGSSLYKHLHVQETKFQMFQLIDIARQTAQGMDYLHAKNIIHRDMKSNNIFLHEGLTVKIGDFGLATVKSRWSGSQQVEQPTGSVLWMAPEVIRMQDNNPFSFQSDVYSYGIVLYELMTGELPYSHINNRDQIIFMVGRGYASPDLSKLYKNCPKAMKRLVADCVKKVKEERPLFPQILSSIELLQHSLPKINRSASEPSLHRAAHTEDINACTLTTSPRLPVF

Columns and labels:
A-Raf kinase = A-Raf kinase (Homo sapiens, UniProt P10398, Y301D/Y302D); test: Biochemical assay for A-Raf.1 (coupled pyruvate kinase/lactate dehydrogenase); settings: read-out: ARAF.1 IC50
Method: Biochemical assay for A-Raf.1
(§1) Activity of A-Raf kinase (SEQ. ID NO. 1) was determined spectroscopically using a coupled pyruvate kinase/lactate dehydrogenase assay that continuously monitors the ATP hydrolysis-dependent oxidation of NADH (e.g., Schindler et al., Science, 2000, 289, 1938-1942). Assays were conducted in 384-well plates (100 μL final volume) using 5.55 nM A-Raf (Sigma), 1.5 units pyruvate kinase, 2.1 units lactate dehydrogenase, 1 mM phosphoenol pyruvate, 0.28 mM NADH, 30.1 nM MEK (SignalChem), and 1 mM ATP in assay buffer (100 mM Tris, pH 7.5, 15 mM MgCl2, 0.5 mM DTT, 0.1% octyl-glucoside, 0.002% (w/v) BSA, and 0.002% Triton X-100). Inhibition of A-Raf was measured by adding serial diluted test compound (final assay concentration of 1% DMSO). A decrease in absorption at 340 nm was monitored continuously for 6 h at 30° C. on a multi-mode microplate reader (BioTek). The reaction rate was calculated using the 4 to 5 h time frame. The reaction rate at each concentration of compound was converted to percent inhibition using controls (i.e., reaction with no test compound and reaction with a known inhibitor) and IC50 values were calculated by fitting a four-parameter sigmoidal curve to the data using Prism (GraphPad software).

B-Raf kinase = B-Raf kinase (Homo sapiens, UniProt P15056); test: Biochemical assay for B-Raf.1 (coupled pyruvate kinase/lactate dehydrogenase); settings: read-out: BRAF.1 IC50
Method: Biochemical Assay for B-Raf.1
as §1, with “B-Raf” for “A-Raf”, “NO: 2)” for “NO. 1)”, “0.13” for “5.55”

C-Raf kinase = C-Raf kinase (Homo sapiens, UniProt P04049, Y340D/Y341D); test: Biochemical assay for C-Raf.1 (coupled pyruvate kinase/lactate dehydrogenase); settings: read-out: CRAF.1 IC50
Method: Biochemical Assay for C-Raf.1
as §1, with “C-Raf” for “A-Raf”, “NO: 3)” for “NO. 1)”, “0.43” for “5.55”

B-Raf (V600E) kinase = B-Raf (V600E) kinase (Homo sapiens, UniProt P15056, V600E); test: Biochemical assay for B-Raf (V600E).1 (coupled pyruvate kinase/lactate dehydrogenase); settings: read-out: BRAF V600E.1 IC50
Method: Biochemical Assay for B-Raf (V600E).1
Activity of B-Raf (V600E) (SEQ. ID NO: 4) kinase was determined spectroscopically using a coupled pyruvate kinase/lactate dehydrogenase assay that continuously monitors the ATP hydrolysis-dependent oxidation of NADH (e.g., Schindler et al., Science, 2000, 289, 1938-1942). Assays were conducted in 384-well plates (100 μL final volume) using 0.03 nM B-Raf (SignalChem), 1.5 units pyruvate kinase, 2.1 units lactate dehydrogenase, 1 mM phosphoenol pyruvate, 0.28 mM NADH, 30.1 nM MEK (SignalChem), and 1 mM ATP in assay buffer (100 mM Tris, pH 7.5, 15 mM MgCl2, 0.5 mM DTT, 0.1% octyl-glucoside, 0.002% (w/v) BSA, and 0.002% Triton X-100). Inhibition of B-Raf (V600E) was measured by adding serial diluted test compound (final assay concentration of 1% DMSO). A decrease in absorption at 340 nm was monitored continuously for 6 h at 30° C. on a multi-mode microplate reader (BioTek). The reaction rate was calculated using the 3 to 4 h time frame. The reaction rate at each concentration of compound was converted to percent inhibition using controls (i.e., reaction with no test compound and reaction with a known inhibitor) and IC50 values were calculated by fitting a four-parameter sigmoidal curve to the data using Prism (GraphPad software).

A375 cells = test: A375 cell proliferation assay (1), resazurin, 96-well; settings: read-out: A375 (1) IC50, inhibition of cell proliferation
Method: A375 Cell Proliferation Assay (1)
A375 cells (catalog (#CRL-1619) are obtained from the American Type Culture Collect (ATTC, Manassas, VA). Briefly, cells were grown in DMEM High Glucose supplemented with 10% characterized fetal bovine serum (Invitrogen, Carlsbad, CA) and 1% Penicillin/Streptomycin/L-Glutamine at 37° C., 5% CO2, and 95% humidity. Cells are expanded until reaching 70-95% confluency at which point they are sub-cultured or harvested for assay use. A serial dilution of test compound is dispensed into a 96-well black clear bottom plate in triplicate. Two thousand five hundred cells are added per well in 200 μL complete growth medium in the 96-well plate. Plates are incubated for 67-72 hours at 37° C., 5% CO2, and 95% humidity. At the end of the incubation, 40 μL of a 440 μM solution of resazurin (Sigma, St. Louis, MO) in PBS is added to each well of the plate and plates are incubated for an additional 5-6 hours at 37° C., 5% CO2, and 95% humidity. Plates are read on a Synergy2 or equivalent reader (Biotek, Winooski VT) using an excitation of 540 nm and an emission of 600 nm. Data is analyzed using Prism software (GraphPad, San Diego, CA) to calculate IC50 values.

Miapaca-2 cells = test: MiaPaca-2 cell proliferation assay (1), resazurin, 96-well; settings: read-out: MiaPaca-2 (1) IC50, inhibition of cell proliferation
Method: MiaPaca-2 Cell Proliferation Assay (1)
Miapaca-2 cells (catalog #CRL-1420) are obtained from the American Type Culture Collect (ATTC, Manassas, VA). Briefly, cells were grown in DMEM supplemented with 10% characterized fetal bovine serum (Invitrogen, Carlsbad, CA), 2.5% New Zealand sourced horse serum and 1% Penicillin/Streptomycin/L-Glutamine at 37° C., 5% CO2, and 95% humidity. Cells are expanded until reaching 70-95% confluency at which point they are subcultured or harvested for assay use. A serial dilution of test compound is dispensed into a 96-well black clear bottom plate in triplicate. Three thousand cells are added per well in 200 μL complete growth medium in the 96-well plate. Plates are incubated for 67-72 hours at 37° C., 5% CO2, and 95% humidity. At the end of the incubation, 40 μL of a 440 μM solution of resazurin (Sigma, St. Louis, MO) in PBS is added to each well of the plate and plates are incubated for an additional 5-6 hours at 37° C., 5% CO2, and 95% humidity. Plates are read on a Synergy2 or equivalent reader (Biotek, Winooski VT) using an excitation of 540 nm and an emission of 600 nm. Data is analyzed using Prism software (GraphPad, San Diego, CA) to calculate IC50 values.

`Cc1cc(F)c(NC(=O)NCCC(C)(C)C)cc1-c1cc(OCCO)nc(C2=CCOCC2)c1` [Example 7] was tested, and the IC50 (A-Raf kinase) was over 1000 nM, the IC50 (B-Raf kinase) was under 100 nM and the IC50 (C-Raf kinase) was under 100 nM. For the same compound, the IC50 (B-Raf (V600E) kinase) was under 100 nM, the IC50 (A375 cells) was 100 to 500 nM and the IC50 (Miapaca-2 cells) was 1 to 10 µM.

The structures given here were assigned with low confidence; some may be wrong.
